# Experimental data as given in the supplement of paper PMC12889115.
# Some of the results follow. Values are raw readings; no control value is given beside them.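 Primary screen: polymyxin B was added at a level permeabilizing Salmonella outer membranes while sparing inner membranes. DMSO wells, both with and without polymyxin B, established maximum growth. Plate-to-plate variation meant each plate was ranked on its own, and the lowest-OD600 compounds were selected as hits.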
# System: Salmonella enterica serovar Typhimurium SL1344
# Experiment: bacterial growth OD600 after 18 h with compound and polymyxin B; higher = more bacterial growth (less inhibition)
# Conditions: 50 µM, Mueller-Hinton broth
Compound,bacterial growth OD600 (polymyxin B 1 µg/mL),bacterial growth OD600 (polymyxin B 0.75 µg/mL)
CC1(C)Cc2nc(C(C)(C)C)ncc2C(NS(=O)(=O)c2ccccc2)C1 (centres undefined),0.864,–
Cc1csc(C(C)N(C)C(=O)c2cc(NS(=O)(=O)N(C)C)cc3nc(CC(C)C)n(C)c23)n1 (centres undefined),–,0.807
COc1ccc(CCN2CCCC(CN(C)C(=O)Nc3ccccc3F)C2)cc1 (centres undefined),1.19,–
CN(C)c1ccc(-c2nc(COc3ccccc3)no2)cn1,0.903,–
Cc1nc2ccccc2n1Cc1cc(C(=O)NCCOC(C)C)n[nH]1,0.918,–
COC(=O)C1CCN(C(=O)c2cc(NS(C)(=O)=O)cc3ncn(CCc4ccccc4)c23)CC1,–,0.789
O=C(c1cccs1)N1Cc2ccccc2OC(c2ccccc2)C1 (centres undefined),–,0.015
COCC(=O)Nc1cc(C(=O)NCc2ccc(C)c(F)c2)cc2ncn(CCc3ccccc3)c12,–,0.731
COCCn1c(CN2CCCCO2)cnc1S(=O)(=O)CC(C)(C)C,1.08,–

# Gathered by group: the compounds so far containing a tert-butyl group.
Compound,bacterial growth OD600 (polymyxin B 1 µg/mL),bacterial growth OD600 (polymyxin B 0.75 µg/mL)
CC1(C)Cc2nc(C(C)(C)C)ncc2C(NS(=O)(=O)c2ccccc2)C1 (centres undefined),0.864,–
COCCn1c(CN2CCCCO2)cnc1S(=O)(=O)CC(C)(C)C,1.08,–
